Measurements reported in publication doi:10.1101/266171.
These are yes or no findings as the source states them, for the method shown. Binding can be weak; no strength is given. For some of these results: Sequences can lack the tags named with a protein. For some of these results: In cells and extracts the contact can be indirect.

Tests used:
[1] = target: cYFP-Exo70B2 (Arabidopsis thaliana); test: split reporter
[2] = target: MBP-Exo70B2 (Arabidopsis thaliana); test: pull-down
[3] = target: GFP-Exo70B2 (Arabidopsis thaliana); test: co-IP
[4] = target: cYFP-Exo70B2-ΔAIM1 (Arabidopsis thaliana); test: split reporter
[5] = target: cYFP-Exo70B2-ΔAIM2 (Arabidopsis thaliana); test: split reporter

B1: nYFP-MPK3 (enzyme, UniProt Q39023 1-370)
chain: MNTGGGQYTDFPAVETHGGQFISYDIFGSLFEITSKYRPPIIPIGRGAYGIVCSVLDTETNELVAMKKIANAFDNHMDAKRTLREIKLLRHLDHENIIAIRDVVPPPLRRQFSDVYISTELMDTDLHQIIRSNQSLSEEHCQYFLYQLLRGLKYIHSANIIHRDLKPSNLLLNANCDLKICDFGLARPTSENDFMTEYVVTRWYRAPELLLNSSDYTAAIDVWSVGCIFMELMNRKPLFPGKDHVHQMRLLTELLGTPTESDLGFTHNEDAKRYIRQLPNFPRQPLAKLFSHVNPMAIDLVDRMLTFDPNRRITVEQALNHQYLAKLHDPNDEPICQKPFSFEFEQQPLDEEQIKEMIYQEAIALNPTYG
- binding [1]: binds

B2: His-ATG8f (protein, UniProt Q8VYK7 1-117)
chain: MAKSSFKQEHDLEKRRAEAARIREKYPDRIPVIVEKAEKSDIPTIDKKKYLVPADLTVGQFVYVIRKRIKLSAEKAIFIFVDNVLPPAGALMSSVYEEKKDDDGFLYVTYSGENTFG
- binding [2]: binds

B3: nYFP-MPK11 (enzyme, UniProt Q9LMM5 1-369)
chain: MSIEKPFFGDDSNRGVSINGGRYVQYNVYGNLFEVSKKYVPPLRPIGRGASGIVCAAWNSETGEEVAIKKIGNAFGNIIDAKRTLREIKLLKHMDHDNVIAIIDIIRPPQPDNFNDVHIVYELMDTDLHHIIRSNQPLTDDHSRFFLYQLLRGLKYVHSANVLHRDLKPSNLLLNANCDLKIGDFGLARTKSETDFMTEYVVTRWYRAPELLLNCSEYTAAIDIWSVGCILGEIMTREPLFPGRDYVQQLRLITELIGSPDDSSLGFLRSDNARRYVRQLPQYPRQNFAARFPNMSVNAVDLLQKMLVFDPNRRITVDEALCHPYLAPLHEYNEEPVCVRPFHFDFEQPSLTEENIKELIYRESVKFNP
- binding [1]: binds

B4: endogenous MPK3 (enzyme, UniProt Q39023 1-370)
chain: MNTGGGQYTDFPAVETHGGQFISYDIFGSLFEITSKYRPPIIPIGRGAYGIVCSVLDTETNELVAMKKIANAFDNHMDAKRTLREIKLLRHLDHENIIAIRDVVPPPLRRQFSDVYISTELMDTDLHQIIRSNQSLSEEHCQYFLYQLLRGLKYIHSANIIHRDLKPSNLLLNANCDLKICDFGLARPTSENDFMTEYVVTRWYRAPELLLNSSDYTAAIDVWSVGCIFMELMNRKPLFPGKDHVHQMRLLTELLGTPTESDLGFTHNEDAKRYIRQLPNFPRQPLAKLFSHVNPMAIDLVDRMLTFDPNRRITVEQALNHQYLAKLHDPNDEPICQKPFSFEFEQQPLDEEQIKEMIYQEAIALNPTYG
- binding [3]: binds

B5: nYFP-ATG8f (protein, UniProt Q8VYK7 1-117)
chain: MAKSSFKQEHDLEKRRAEAARIREKYPDRIPVIVEKAEKSDIPTIDKKKYLVPADLTVGQFVYVIRKRIKLSAEKAIFIFVDNVLPPAGALMSSVYEEKKDDDGFLYVTYSGENTFG
- binding [4]: binds
- binding [1]: binds
- binding [5]: binds
